# Earlier results as cited in patent US20170100411A1, “CORTICOSTEROID FORMULATIONS FOR MAINTAINING CORTICOSTEROID SYNOVIAL FLUID CONCENTRATIONS” (priority 2015, published 2017).
# Some results were stated once for a whole list of compounds, not compound by compound.
# Tested on: HPA axis
# Conditions: inhaled steroids
row,SMILES,CCS % (published)
1,CC1(C)O[C@@H]2C[C@H]3[C@@H]4C[C@H](F)C5=CC(=O)C=C[C@]5(C)[C@H]4[C@@H](O)C[C@]3(C)[C@]2(C(=O)CO)O1 [flunisolide],11-40%
2,CCC(=O)O[C@]1(C(=O)SCF)[C@H](C)C[C@H]2[C@@H]3C[C@H](F)C4=CC(=O)C=C[C@]4(C)[C@@]3(F)[C@@H](O)C[C@@]21C [fluticasone propionate],11-40%
